{"source": "PubChem BioAssay AID1347076", "about": "(National Center for Advancing Translational Sciences (NCATS), 2019)", "note": "Hit rate of the full screen: of about 400,000 compounds, about 13,000 (3.2%) were called active. The shares of active, inactive and inconclusive entries below differ from those in the screen. Calls follow the shape of the dose curve; as a rule, active = well fitted cell-killing curve with a large enough effect; inconclusive = small, poorly fitted or top-dose-only effect, or effect the other way; inactive = flat fitted curve, though single readings scatter. Where the call is inconclusive, the potency comes from a doubtful curve fit. % is scaled to controls: 0 for no effect and ±100 for the full control effect; potency is read from the fitted curve at half-maximal effect."}
{"test": "qHTS assay for MDR1-selective chemotherapeutics: Primary screen using the drug-selected MDR subline cells KB-V1; also: nearly all actives have a fitted effect of over 60% in size", "conditions": "KB-V1 MDR cells viability, CellTiter-Glo, 72 h; activity change, negative = cytotoxicity: at 46.1 µM (top of the series)", "procedure,_shortened": "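Readout: CellTiter-Glo luminescence, 10 min after addition. Cells: KB-V1 MDR subline, 72 h at 37 degrees C with compound. Analysis: corrected, normalized data fitted to concentration-effect curves.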"}
{"smiles": "CN(CC(=O)Nc1ccc(F)c(F)c1F)C(=O)C1CCCC1", "activity change, negative = cytotoxicity": "inactive: 49.7%"}
{"smiles": "NC(=O)Cn1c(O)c(N=NC(=O)CNC(=O)/C=C/c2ccccc2)c2ccccc21", "activity change, negative = cytotoxicity": "inconclusive: 43.1%"}
{"smiles": "Cc1cc(C)cc(N(CC(=O)NC2CCCCC2)C(=O)c2csnn2)c1", "Potency": "inconclusive: 8.2 µM [cytotoxic, partial curve, poor fit]"}
{"smiles": "COc1ccc(-c2noc(-c3ccc(N4CCOCC4)c([N+](=O)[O-])c3)n2)cc1", "Potency": "inconclusive: 29.1 µM [rising, single point]"}
{"smiles": "CC(=NNC(=O)CSc1nc2ccccc2o1)c1ccco1", "Potency": "inconclusive: 4.11 µM [rising, full curve, poor fit]"}
{"smiles": "Cc1cc(Cl)ccc1OCC(=O)Nn1c(C)ccc1C", "Potency": "inconclusive: 20.6 µM [cytotoxic, single point]"}
{"smiles": "CCc1ccc(N=C2NC(=O)/C(=C/c3cc(OC)c(OC)c(OC)c3)S2)cc1", "Potency": "inconclusive: 0.651 µM [cytotoxic, full curve, poor fit]"}
{"smiles": "CCCCCNC(=O)C(C1CC1)n1c(=O)c(-c2cc3ccccc3[nH]2)nc2ccccc21", "note": "(stereo unspecified)", "Potency": "inconclusive: 10.3 µM [cytotoxic, partial curve, poor fit]"}
{"smiles": "Cn1cccc1C(=O)Nc1ccc(N2CCOCC2)cc1", "activity change, negative = cytotoxicity": "inactive: 0%"}
{"smiles": "O=C(COC(=O)c1cccnc1Cl)Nc1ccc(N2CCCCC2)cc1", "Potency": "inconclusive: 29.1 µM [rising, single point]"}
{"smiles": "CCOc1cc(C)c(S(=O)(=O)Nc2ccc(Cl)cn2)cc1C", "Potency": "inconclusive: 23.1 µM [cytotoxic, single point]"}
{"smiles": "CCOC(=O)C1=C(C)N(CCCC(=O)O)C(=O)NC1c1ccccc1Cl", "note": "(stereo unspecified)", "Potency": "inconclusive: 13 µM [cytotoxic, partial curve, poor fit]"}
{"smiles": "CC(C)CNS(=O)(=O)c1ccc(S(=O)(=O)N2CCN(CCC#N)CC2)cc1", "activity change, negative = cytotoxicity": "inactive: -0.148%"}
{"smiles": "CCOC(=O)c1nn(-c2ccc(F)cc2)c(=O)c2c(N)scc12", "Potency": "inconclusive: 29.1 µM [rising, single point]"}
{"smiles": "CCc1nnc(NC(=O)c2ccc(Br)o2)s1", "Potency": "inconclusive: 13 µM [cytotoxic, single point]"}
{"smiles": "CC1=CC(C)(C)Nc2ccc(OC(=O)CN3C(=O)C4CCCCC4C3=O)cc21", "note": "(stereo unspecified)", "Potency": "inconclusive: 29.1 µM [cytotoxic, single point]"}
{"smiles": "Cc1ccc(S(=O)(=O)N2CCN(C(=O)c3cc(S(=O)(=O)N4CCOCC4)c(Cl)cc3Cl)CC2)cc1", "activity change, negative = cytotoxicity": "inactive: 1.36%"}
{"smiles": "CCc1ccc(-c2cc(C)no2)cc1S(=O)(=O)N1CCN(c2ccccn2)CC1", "Potency": "inconclusive: 2.06 µM [cytotoxic, full curve]"}
{"smiles": "CCN(CC)S(=O)(=O)c1ccc2c(c1)nc(CCC(=O)OCC(=O)Nc1cc(OC)cc(OC)c1)n2C", "Potency": "inconclusive: 0.731 µM [rising, full curve, poor fit]"}
{"smiles": "O=C(Cn1ncc2c(Cl)cccc21)NCc1cccc(Cl)c1", "activity change, negative = cytotoxicity": "inactive: 16.2%"}
{"smiles": "COc1ccc(/C=N/Nc2nonc2N)cc1OC", "Potency": "inconclusive: 25.9 µM [cytotoxic, partial curve, poor fit]"}
{"smiles": "COc1ccc(N2Cc3ccccc3/C2=N\\C(=O)Nc2ccccc2)cc1", "activity change, negative = cytotoxicity": "inactive: -13.5%"}
{"smiles": "COc1ccc(CCNC(=O)c2nnn(-c3cccc(C)c3)c2N)cc1OC", "Potency": "active: 9.2 µM"}
{"smiles": "CCOC(=O)C1(C)CCCN(C(=O)CCc2ccccc2)C1", "note": "(stereo unspecified)", "activity change, negative = cytotoxicity": "inactive: -2.27%"}
{"smiles": "O=C(CCC(=O)N1CCN(c2ccc(C(F)(F)F)cn2)CC1)c1cccs1", "activity change, negative = cytotoxicity": "inactive: 0.999%"}
{"smiles": "COc1ccc(OC)c(S(=O)(=O)N2CCC(n3c(C)nc4cccnc43)CC2)c1", "activity change, negative = cytotoxicity": "inactive: 2.13%"}
{"smiles": "COc1ccc(Nc2nc(N)nc(CSc3nc(C)cc(C)n3)n2)cc1", "Potency": "inconclusive: 6.51 µM [cytotoxic, full curve]"}
{"smiles": "CN(C(=O)CC(=O)Nc1ccc2nc3n(c(=O)c2c1)CCCCC3)c1ccccc1F", "activity change, negative = cytotoxicity": "inactive: -1.66%"}
{"smiles": "CC(=O)c1ccc(S(=O)(=O)N2CCCC(N(C)CCc3ccccc3)C2)cc1", "note": "(stereo unspecified)", "activity change, negative = cytotoxicity": "inactive: 0%"}
{"smiles": "Cc1ccc([C@H]2C[C@H](n3cc(C4CC4)nn3)[C@@H](O)CN2Cc2cccs2)cc1", "Potency": "inconclusive: 16.4 µM [cytotoxic, partial curve]"}
{"smiles": "CC(C)OCCCn1c(=O)c2ccccc2n2c(-c3ccccc3)nnc12", "Potency": "inconclusive: 29.1 µM [cytotoxic, single point]"}
{"smiles": "C/C(=N\\S(=O)(=O)c1ccc(C)cc1)NC(=S)Nc1ccccc1", "Potency": "inconclusive: 0.92 µM [rising, full curve, poor fit]"}
{"smiles": "Cc1ccnc(NC(=O)c2ccccc2NC(=O)c2ccc(Cl)cc2Cl)c1", "Potency": "active: 3.26 µM"}
{"smiles": "COc1ccc(/C=N/NC(=S)Nc2ccccc2[N+](=O)[O-])cc1O", "Potency": "active: 11.6 µM"}
{"smiles": "Cc1ccc(CN2CCC(CO)(CC3CCCCO3)CC2)o1", "note": "(stereo unspecified)", "activity change, negative = cytotoxicity": "inactive: -16.3%"}
{"smiles": "CCc1nn2c(=O)cc(COC(=O)Cc3ccccc3)nc2s1", "activity change, negative = cytotoxicity": "inactive: 7.28%"}
{"smiles": "CCOC(=O)C1(CCCc2ccccc2)CCN(C(=O)CCN2CCCCC2=O)CC1", "activity change, negative = cytotoxicity": "inactive: -9.78%"}
{"smiles": "O=S1(=O)CC2SC(=S)N(Cc3ccccc3)C2C1", "note": "(stereo unspecified)", "Potency": "inconclusive: 0.0326 µM [rising, full curve]"}
{"smiles": "O=C(Nc1c(-c2ccccc2)[nH][nH]c1=O)c1cccs1", "activity change, negative = cytotoxicity": "inactive: 4.36%"}
{"smiles": "CCc1ccccc1NC(=O)CN(C)C(=O)COC(=O)c1c(Cl)cccc1Cl", "Potency": "inconclusive: 32.6 µM [cytotoxic, partial curve, poor fit]"}
{"smiles": "COc1ccc(S(=O)(=O)N2CCOCC2)cc1NC(=O)c1ccc(S(=O)(=O)N2CCCCC2)cc1", "activity change, negative = cytotoxicity": "inactive: -3.93%"}
{"smiles": "COC(=O)c1ccc(CNC(=O)C(Cc2ccccc2)NC(=O)c2ccccc2)cc1", "note": "(stereo unspecified)", "activity change, negative = cytotoxicity": "inactive: 2.24%"}
{"smiles": "COc1ccccc1C(=O)OCc1nc(N)nc(Nc2ccccc2C)n1", "Potency": "inconclusive: 18.4 µM [cytotoxic, single point]"}
{"smiles": "CC(CNC(=O)CCn1ccc2cc(S(=O)(=O)N3CCCC3)ccc21)c1ccccc1", "note": "(stereo unspecified)", "activity change, negative = cytotoxicity": "inactive: -12.4%"}
{"smiles": "Cc1occc1-c1n[nH]c(=S)n1-c1ccccc1", "Potency": "inconclusive: 29.1 µM [rising, single point]"}
{"smiles": "CCCCN1C=CC(=C2C(=O)c3ccccc3C2=O)C=C1", "Potency": "inconclusive: 3.66 µM [cytotoxic, partial curve, poor fit]"}
{"smiles": "COCCN1CCN(C(=O)C2CCC(=O)N(Cc3ccc(Cl)cc3)C2)CC1", "note": "(stereo unspecified)", "Potency": "inconclusive: 7.31 µM [rising, partial curve, poor fit]"}
{"smiles": "O=C1c2ccccc2N2C(=O)c3ccccc3C2N1Cc1ccccc1", "note": "(stereo unspecified)", "Potency": "inconclusive: 9.2 µM [cytotoxic, partial curve]"}
{"smiles": "COc1ccc(C(=O)c2[nH]c(N)c(C(=O)NCCc3c[nH]c4ccccc34)c2-c2ccccc2Br)cc1", "Potency": "inconclusive: 16.4 µM [cytotoxic, single point]"}
{"smiles": "O=C(CSc1nc2cc(Cl)ccc2s1)c1cc2ccccc2o1", "Potency": "inconclusive: 29.1 µM [cytotoxic, single point]"}
{"smiles": "O=C(Cc1cccs1)NCc1cccc(F)c1", "Potency": "inconclusive: 14.6 µM [rising, partial curve, poor fit]"}
{"smiles": "O=C(NCc1ccco1)c1ccc(Cn2c(SCc3ccccc3)nc3cccnc32)cc1", "activity change, negative = cytotoxicity": "inactive: -5.93%"}
{"smiles": "CN(C)CCCN1C(=O)c2cccc3cccc(c23)C1=O", "activity change, negative = cytotoxicity": "inactive: 0%"}
{"smiles": "COc1ccc(OC)c(-c2cc(-c3cccnc3)nc(N)c2C#N)c1", "Potency": "active: 2.59 µM"}
{"smiles": "C#Cc1cccc(Nc2nc(NCc3ccccc3)nc3ccsc23)c1", "Potency": "inconclusive: 3.66 µM [cytotoxic, full curve]"}
{"smiles": "CC(C)c1nc2oc3c(N(C)CCO)ncnc3c2c2c1CCC2", "activity change, negative = cytotoxicity": "inactive: -6.08%"}
{"smiles": "CC(C)CCOc1ccc(Cn2c(=O)oc3ccccc32)cc1", "Potency": "inconclusive: 20.6 µM [rising, partial curve, poor fit]"}
{"smiles": "Cc1[nH]c2ccccc2c1C(=O)COC(=O)c1cccc(S(=O)(=O)N2CCCCC2)c1", "Potency": "inconclusive: 29.1 µM [cytotoxic, single point]"}
{"smiles": "C#CCn1c(=NC(=O)c2ccc(S(=O)(=O)N3CCCc4ccccc43)cc2)sc2cc(S(N)(=O)=O)ccc21", "activity change, negative = cytotoxicity": "inactive: -7.6%"}
{"smiles": "COc1ccc(C(O)c2nc(-c3ccc4ccccc4c3)cs2)cc1", "note": "(stereo unspecified)", "activity change, negative = cytotoxicity": "inactive: -23.6%"}
{"smiles": "CCOC(=O)c1cnc2ccc(Br)cc2c1NCCN1CCOCC1", "activity change, negative = cytotoxicity": "inactive: 3.02%"}
{"smiles": "CCOC(=O)COc1ccc(CC)cc1C(=O)c1ccn2nc(-c3ccc(F)cc3)cc2n1", "Potency": "inconclusive: 0.092 µM [rising, full curve]"}
{"smiles": "O=C(CN1C(=O)c2ccc([N+](=O)[O-])cc2C1=O)NCc1ccc(C(=O)O)cc1", "Potency": "inconclusive: 18.4 µM [rising, single point]"}
{"smiles": "CCn1c2ccccc2c2cc(NC(=O)c3cccc(OC)c3OC)ccc21", "Potency": "inconclusive: 3.26 µM [cytotoxic, partial curve]"}
{"smiles": "Cc1ccc(S(=O)(=O)CS(=O)(=O)c2ccc(C)cc2)cc1", "Potency": "inconclusive: 20.6 µM [cytotoxic, single point]"}
{"smiles": "COc1cccc(COc2ccc3c(C)c(Cc4ccccc4)c(=O)oc3c2)c1", "Potency": "inconclusive: 14.6 µM [cytotoxic, partial curve, poor fit]"}
{"smiles": "COc1cccc(-c2nnc(SCC(=O)OC(C)C)n2N)c1", "Potency": "inconclusive: 25.9 µM [cytotoxic, single point]"}
{"smiles": "COC(=O)[C@@]12C[C@@H](CC(=O)N3CCOCC3)C(=O)N(Cc3ccccc3)C1=CCC(C)(C)C2", "Potency": "inconclusive: 3.26 µM [cytotoxic, partial curve, poor fit]"}
{"smiles": "COC(=O)[C@]1(Cc2ccccc2)N[C@H](CN(C)C(=O)Nc2ccc(C(F)(F)F)cc2)[C@@H]2C(=O)N(C)C(=O)[C@@H]21", "activity change, negative = cytotoxicity": "inactive: -1.68%"}
{"smiles": "CCC(C)NC(=O)c1ccccc1NC(=O)C1COc2ccccc2O1", "note": "(stereo unspecified)", "Potency": "inconclusive: 25.9 µM [cytotoxic, partial curve, poor fit]"}
{"smiles": "CCc1nc2c(OCC3CCCCC3)cccn2c1N(C)C(=O)c1ccccc1F", "Potency": "inconclusive: 23.1 µM [cytotoxic, single point]"}
